{
  "source": "patent US11278547B2",
  "about": "(Strongbridge Dublin Limited, priority 2019, dated 2022)",
  "key": {"[1]": {"conditions": "Period 1: metformin 500 mg single oral dose alone"}, "[2]": {"conditions": "Period 3: metformin 500 mg co-administered with levoketoconazole 600 mg Q12H"}},
  "note": "Where two headings read alike, the source gives them in different places.",
  "data": [
    {"smiles": "CN(C)C(=N)NC(=N)N.Cl", "note": "[metformin, N,N-dimethylimidodicarbonimidic diamide hydrochloride]", "values": [
      {"measurement": "Cl/F, Geometric Mean", "setting": "[1]", "result": 82.2, "unit": "L/h"},
      {"measurement": "Cl/F, Median", "setting": "[1]", "result": 79.7, "unit": "L/h"},
      {"measurement": "Cl/F, Geometric Mean", "setting": "[2]", "result": 35.7, "unit": "L/h"},
      {"measurement": "Cl/F, Median", "setting": "[2]", "result": 33.1, "unit": "L/h"}
    ]}
  ]
}
